Biological target: Phosphoethanolamine N-methyltransferase 2 (Caenorhabditis elegans, UniProt Q22993)
Assay: Radiochemical Assay
Details: pH 8; 25 °C
Excerpt: A radiochemical assay was used to measure enzymatic activity.

Sequences of proteins named here, by UniProt entry; tags and fusion partners are left off. A change or cut given only in a name is not applied to a line headed by its entry.
UniProt Q22993: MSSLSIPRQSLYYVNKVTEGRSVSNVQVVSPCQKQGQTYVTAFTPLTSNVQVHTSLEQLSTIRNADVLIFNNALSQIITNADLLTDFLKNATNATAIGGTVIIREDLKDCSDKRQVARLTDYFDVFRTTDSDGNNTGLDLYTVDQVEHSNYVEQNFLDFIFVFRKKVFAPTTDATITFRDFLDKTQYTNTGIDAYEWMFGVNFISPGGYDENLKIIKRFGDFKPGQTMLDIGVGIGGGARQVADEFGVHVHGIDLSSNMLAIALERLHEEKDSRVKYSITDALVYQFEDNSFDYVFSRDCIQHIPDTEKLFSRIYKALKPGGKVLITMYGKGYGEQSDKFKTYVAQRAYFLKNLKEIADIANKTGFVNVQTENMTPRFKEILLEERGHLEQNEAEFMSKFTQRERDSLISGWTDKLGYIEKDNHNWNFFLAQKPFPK

- IC50: 13 mM
Compound: CN(C)CCOC(c1ccccc1)c1ccccc1 [Hydramine]

Source: BindingDB's records for doi:10.1074/jbc.M111.290619 (Washington University, 2011)
